Earlier results as cited in patent publication US20230321008A1, “INHIBITORS OF ACID SPHINGOMYELINASE FOR PREVENTING AND TREATING THE COVID-19 DISEASE” (priority 2020, published 2023).

Target: T1, acid sphingomyelinase (ASM) (Homo sapiens, UniProt P17405)
T1 sequence (P17405 47-631): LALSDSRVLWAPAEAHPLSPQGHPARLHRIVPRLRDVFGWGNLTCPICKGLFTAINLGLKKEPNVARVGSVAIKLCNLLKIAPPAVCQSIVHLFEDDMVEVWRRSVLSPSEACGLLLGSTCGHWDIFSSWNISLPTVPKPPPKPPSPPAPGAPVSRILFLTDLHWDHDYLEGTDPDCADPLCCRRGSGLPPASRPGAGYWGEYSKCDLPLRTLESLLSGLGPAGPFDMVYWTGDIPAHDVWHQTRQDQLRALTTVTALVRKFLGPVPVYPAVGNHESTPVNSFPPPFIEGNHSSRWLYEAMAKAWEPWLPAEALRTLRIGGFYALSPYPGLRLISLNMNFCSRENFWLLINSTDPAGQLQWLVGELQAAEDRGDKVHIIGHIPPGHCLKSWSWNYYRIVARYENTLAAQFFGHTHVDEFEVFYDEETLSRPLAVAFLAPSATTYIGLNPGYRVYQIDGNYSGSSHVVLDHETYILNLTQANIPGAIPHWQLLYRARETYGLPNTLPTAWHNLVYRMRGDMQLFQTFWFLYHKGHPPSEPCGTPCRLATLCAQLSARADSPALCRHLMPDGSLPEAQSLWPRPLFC
Conditions: cited from earlier work

Q: Which “In vitro inhibition of acid sphingomyelinase (in words)” value (“In vitro inhibition” below) does the source give for `CN1CCC[C@@H]1CCO[C@](C)(c1ccccc1)c1ccc(Cl)cc1` [clemastine] here?
A: in vitro inhibit acid sphingomyelinase with varying degrees

Q: For `CCN(CC)CCOC(=O)C1(C2CCCCC2)CCCCC1` [dicycloverine], which “In vitro inhibition” value is on record?
A: in vitro inhibit acid sphingomyelinase with varying degrees

Q: For `C(=C\c1ccccc1)/CN1CCN(C(c2ccccc2)c2ccccc2)CC1` [cinnarizine], which “In vitro inhibition” value is on record?
A: in vitro inhibit acid sphingomyelinase with varying degrees

Q: For `Clc1ccc2c(c1)CCc1cccnc1C2=C1CCNCC1` [Desloratadine, desloratadine], which “In vitro inhibition” value is on record?
A: in vitro inhibit acid sphingomyelinase with varying degrees
